# Measurements reported in PubChem BioAssay (Tox21).
# Several values for one entry are separate records, joined by “and”; a condition that tells them apart may be missing. Equal values may be shown once. The inconclusive results got no clear call from the source; some entries with a clear call stand among them for comparison. A potency beside an inconclusive call is a rough fit, not a confirmed value. Activity calls are given as the source filed them. The call rests on the fitted dose curve.
# Target: Beta-2 adrenergic receptor (Homo sapiens) (UniProt P07550)
# Experiment: Adrenergic beta2 receptor (ADRB2) small molecule agonists, cell-based qHTS assay (AID 1963593);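 on activation: CHO cells stably overexpressing human ADRB2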
# Settings: CHO-ADRB2 cells, cAMP HTRF, 30 min; activation: at 92.4 µM (top of the series) unless noted
# Method in brief: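 CHO cells stably over-expressing ADRB2 were plated overnight at 37C, then dosed with compounds plus a stimulation mix containing 100uM IBMX and 25uM Ro-20-1724 for 0.5hr at room temperature. cAMP was measured by HTRF competition, 1hr.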
# On the % scale 0 is the no-effect control and ±100 the full control effect; potency means the concentration at half of the fitted maximal effect.
SMILES,activation,Potency
[O]=[Cr][O][Cr]=[O],inconclusive: 1.55%,–
C=CC(Cl)CCl (stereo not given),inconclusive: -43.4%,"inconclusive: 6980 nM [inhibitor, single point]"
c1ccc2c(c1)CCCC2,inconclusive: -7.05%,–
C=CCc1ccc2c(c1)OCO2,–,inactive
ClC(Cl)c1ccccc1,inconclusive: -2.91%,–
OCC(O)CCl (stereo not given),inconclusive: 1.3%,"inconclusive: 172 nM [inhibitor, partial curve, poor fit]"
O=C1CCCN1,inconclusive: 30.3%,–
C1=Cc2cccc3cccc1c23,inconclusive: 8.31%,–
C/C(=N\NC(=O)Nc1cc(F)cc(F)c1)c1ncccc1C(=O)O,inconclusive: 3.62%,–
COc1ccc(C=O)cc1,inconclusive: 34.8% and inconclusive: 6.98%,–
CCCCOC(=O)CCC(=O)OCCCC,inconclusive: -51%,–
Cc1ccc2ccccc2c1C,inconclusive: -3.57%,"inconclusive: 992 nM [inhibitor, partial curve, poor fit]"
c1ccc(-c2cccc(-c3ccccc3)c2)cc1,inconclusive: 16.4%,–
CC(C)(C)C(=O)C(Cl)Cl,inconclusive: 40.6%,–
CCOC(=O)c1ccccc1N,inconclusive: -1.57%,–
CCCCON=O,inconclusive: -2.2%,–
Oc1ccc(Cl)cc1,inconclusive: -2.95%,–
C=CC(=O)OCC,inactive: 0.0358%,–
O=C1CC[C@@]2(O)[C@H]3Cc4ccc(O)c5c4[C@@]2(CCN3CC2CC2)[C@H]1O5,inactive: 13.1% [at 42.5 µM],–
O=C1C[C@@H]2OCC=C3CN4CC[C@]56c7ccccc7N1[C@H]5[C@H]2[C@H]3C[C@H]46,inconclusive: -21.9% [at 42.5 µM],–

# Complete entries, quoted from the list:
# Oc1ccc(Cl)cc1 is entered as activation: inconclusive: -2.95%
# C/C(=N\NC(=O)Nc1cc(F)cc(F)c1)c1ncccc1C(=O)O is entered as activation: inconclusive: 3.62%

# Continued:

SMILES,activation,Potency
CC(=O)CCC(C)=O,inconclusive: 25.8%,–
Cc1cc(Cl)ccc1O,inconclusive: 19.4%,–
CC1(C)C(C=C(Cl)Cl)C1C(=O)OC(C#N)c1ccc(F)c(Oc2ccccc2)c1 (stereo not given),inconclusive: 33.5%,–
O=[N+]([O-])c1ccc(Cl)c(Cl)c1,inconclusive: 2.46% and inconclusive: 17.2%,–
Cn1cc[n+](C)c1 (tested in a mixture with another compound),inconclusive: -0.963%,–
FC(Cl)(Cl)C(F)(Cl)Cl,–,"inconclusive: 661 nM [inhibitor, single point]"
CC(C#N)CCC#N (stereo not given),–,"inactive and inconclusive: 193 nM [inhibitor, partial curve, poor fit]"
C=CC(=O)OCCCCCC(C)C,inconclusive: -47.1%,–
CC(Cl)(Cl)C(=O)O,inconclusive: -4.94%,"inconclusive: 6130 nM [inhibitor, single point]"
O=NN1CCCCC1,inconclusive: 0.528%,–
O=CC=O,inconclusive: -16%,–
Cc1ncc2n1-c1ccc(Cl)cc1C(c1ccccc1F)=NC2,–,"inconclusive: 33500 nM [inhibitor, single point]"
CCOC(=O)Cc1ccccc1,inconclusive: 13.3%,–
CCC(C)Nc1c([N+](=O)[O-])cc(C(C)(C)C)cc1[N+](=O)[O-] (stereo not given),inconclusive: 33.4%,–
COc1ccccc1OC,inactive: -1.2%,–
CNC(=O)Oc1ccccc1C1OCCO1,inactive: 10.7%,–
C1CN2CCC1CC2,inactive: 3.12% [at 42.5 µM],–
C#CC(C)(C)NC(=O)c1cc(Cl)cc(Cl)c1,inconclusive: 31.7%,"inconclusive: 17.4 nM [inhibitor, single point]"
COC[C@H](C)N(C(=O)CCl)c1c(C)csc1C,inactive: -19.3%,–
C=COCCCl,inconclusive: 23.7%,–

# Same assay, conditions: CHO-ADRB2 cells, cAMP HTRF, 30 min; at 92.4 µM (top of the series)
row,SMILES,activation
1,c1ccc2c(c1)CCCC2,inactive: -54.1%
2,ClC(Cl)c1ccccc1,inactive: -3.06%
3,O=C1CCCN1,inactive: 25.5%
4,C1=Cc2cccc3cccc1c23,inactive: 8.01%
5,C/C(=N\NC(=O)Nc1cc(F)cc(F)c1)c1ncccc1C(=O)O,inactive: -0.667%
6,c1ccc(-c2cccc(-c3ccccc3)c2)cc1,inactive: -13.2%
7,Oc1ccc(Cl)cc1,inactive: 10.5%
8,Cc1cc(Cl)ccc1O,inactive: 3.7%
9,C=CC(=O)OCCCCCC(C)C,inactive: 16.8%
10,CC(Cl)(Cl)C(=O)O,inactive: 5.32%
